PubChem BioAssay AID1508597 | Cure First, 2020
This is an unselected part of the about 2,100 reagents, under one of the conditions tested. 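Calls flag viability under 80% in either arm, not effects specific to rucaparib; the reference for percent is not stated.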 Entries without a mark were called inactive. Not stated in the record: the 100% reference.

Test: 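Knock-downs altering ovarian cancer cell survival with or without PARP inhibitor rucaparib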 (primary screen)
Cells: human ovarian carcinoma lines grown from tumours: OCI-P5x (papillary serous) and OCI-C5x (clear cell)
Reagent: siRNA pool against human genes, 1.25 pmol siRNA per well
Timing: 72 h or 96 h, depending on the cell culture
Treatment: rucaparib 20 µM (about IC30) or vehicle, present until read-out
Rucaparib or vehicle: Rucaparib
Cell line: OCI-P5x (serous)
Detection: 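Luminescent ATP-based viability assay read 72 or 96 h after transfection, depending on culture, given as normalised percent viability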
Direction: viability, normalised: higher = more viable cells remaining
Rule for the call: 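Active when normalised viability falls below 80 percent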
Meaning of the calls: active = viability under 80%; inactive = viability 80% or more

no.	gene knocked down	technical replicate	viability, normalised (%)
1	METTL8	1	50.6 (active)
2	METTL8	2	47.1 (active)
3	METTL8	3	51.8 (active)
4	UPF1	1	63.8 (active)
5	UPF1	2	70.3 (active)
6	UPF1	3	47.5 (active)
7	KDM3B	1	51.5 (active)
8	KDM3B	2	57 (active)
9	KDM3B	3	45.5 (active)

The list goes on, starting with the last 2 of the part before.
no.	gene knocked down	technical replicate	viability, normalised (%)
8	KDM3B	2	57 (active)
9	KDM3B	3	45.5 (active)
10	DNAJC5	1	117
11	DNAJC5	2	107
12	DNAJC5	3	98.2
13	CCK	1	71.4 (active)
14	CCK	2	75.4 (active)
15	CCK	3	23.3 (active)
16	SQLE	1	75.2 (active)
17	SQLE	2	75.8 (active)
18	SQLE	3	90.4
19	SMPD2	1	87.9
20	SMPD2	2	86.2
21	SMPD2	3	86.7
22	TNK2	1	109
23	TNK2	2	89.3
24	TNK2	3	89.7
